# Test results as given in PubChem BioAssay AID1347076 (National Center for Advancing Translational Sciences (NCATS), 2019).
# The campaign covered roughly 400,000 compounds. About 13,000 (3.2%) were called active. This list was built around the results that the source calls inconclusive (neither active nor inactive); the mix of calls is not that of the screen. Calls follow the shape of the dose curve; as a rule, active = well fitted cell-killing curve with a large enough effect; inconclusive = small, poorly fitted or top-dose-only effect, or effect the other way; inactive = flat fitted curve, though single readings scatter. Where the call is inconclusive, the potency comes from a doubtful curve fit.
# Assay: qHTS assay for MDR1-selective chemotherapeutics: Primary screen using the drug-selected MDR subline cells KB-V1; also: nearly all actives have a fitted effect of over 60% in size
# Settings: KB-V1 MDR cells viability, CellTiter-Glo, 72 h; activity change, negative = cytotoxicity: at 46.1 µM (top of the series)
# In short: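 In this primary screen, KB-V1 cells overexpressing P-gp are incubated with library compounds (lowest to highest concentration) for 72 h at 37 degrees C before a luminescent ATP viability read.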
# % is scaled to controls: 0 for no effect and ±100 for the full control effect; potency is read from the fitted curve at half-maximal effect.
Compound,Potency,"activity change, negative = cytotoxicity"
CCn1c(SCC(=O)c2ccc(Cl)cc2)nnc1-c1cccs1,"inconclusive: 23.1 µM [cytotoxic, partial curve, poor fit]",–
O=C(CCc1nc(-c2ccccc2F)no1)NC1CCCCC1,"inconclusive: 20.6 µM [cytotoxic, single point]",–
COc1ccc(-c2ccc(F)cc2)cc1[C@H]1[C@H]2C=CC[C@@H](C)[C@@H]2C(=O)N1Cc1ccccc1,"inconclusive: 20.6 µM [cytotoxic, single point]",–
COc1ccc(NC(=O)c2ccc(-n3nc(C)c[n+]3[O-])cc2)cc1,"inconclusive: 20.6 µM [cytotoxic, partial curve, poor fit]",–
COC(=O)Nc1nc(-c2ccccc2)c(C(=O)c2ccccc2)s1,"inconclusive: 0.206 µM [cytotoxic, full curve, poor fit]",–
Nc1ccn([C@@H]2O[C@H](CNCc3ccc(C#CCCO)cc3)[C@@H](O)[C@H]2O)c(=O)n1,inactive,–
CCn1c(=O)n(CC(=O)N2CCN(c3ccccc3F)CC2)c(=O)c2ccccc21,"inconclusive: 10.3 µM [cytotoxic, partial curve, poor fit]",–
CN(C)c1ccc(-c2nc3n(n2)C(c2cccnc2)C2=C(CC(C)(C)CC2=O)N3)cc1 (stereo not drawn),"inconclusive: 16.4 µM [cytotoxic, single point]",–
O=c1cc(CSc2nnnn2-c2ccc(O)cc2)nc2sccn12,"inconclusive: 25.9 µM [rising, single point]",–
COc1ccccc1N1CCN(CCCCNC(=O)c2ccc3ccccc3c2)CC1,"inconclusive: 7.31 µM [cytotoxic, partial curve]",–
CCOc1ccc(NCc2cccn2-c2nnc(N3CCC(C(=O)NCCCN4CCCCC4CC)CC3)s2)cc1 (stereo not drawn),"inconclusive: 3.66 µM [rising, full curve]",–
Cc1oc(-c2ccc(F)cc2)nc1CN(Cc1ccccn1)CC1CCCO1 (stereo not drawn),"inconclusive: 6.51 µM [cytotoxic, partial curve]",–
Cc1ccccc1CN1CCN(CC(=O)NCCCN2CCN(c3ccc(F)cc3)CC2)C1=O,"inconclusive: 0.0065 µM [cytotoxic, full curve, poor fit]",–
COc1cc(/C=C2\SC(c3ccc(C)cc3)=NC2=O)cc(OC)c1O,inactive,–
Fc1cccc(-c2cc3nc4c(c(N5CCC6(CC5)OCCO6)n3n2)CCCC4)c1,inactive,–
CC(=O)Oc1ccc(OC(C)=O)c2c1C1C=CC2CC1,"inconclusive: 18.4 µM [cytotoxic, single point]",–
O=C(CCc1ccccc1)Nc1ccc(S(=O)(=O)NC2=NCCCCC2)cc1,inactive,–
O=C(NCc1ccccc1)C1=C[C@H](c2ccc(C(F)(F)F)cc2)C[C@H](OCCCCO)O1,inactive,–
O=C(CN(c1ccc(Cl)cc1)S(=O)(=O)c1ccc(Cl)c([N+](=O)[O-])c1)NCCc1ccc(F)cc1,inactive,–
Cc1cc2nc(/C(C#N)=C/c3ccncc3)[nH]c2cc1C,inactive,–
COc1ccc(-c2csc(Nc3ccc(Oc4ccccc4)cc3)n2)cc1,inactive,–
COc1ccc(Cc2nc3ccc(C(=O)NCc4cc(C)no4)cc3o2)cc1,inactive,–
Cc1cccc(Nc2nc(-c3ccc(O)cc3O)cs2)n1,"inconclusive: 0.0073 µM [cytotoxic, full curve, poor fit]",–

Compound,Potency,"activity change, negative = cytotoxicity"
Cc1cc(C)c(NC(=O)CCN2C(=O)c3ccccc3Sc3ncccc32)c(C)c1,–,inconclusive: 0.651%
O=C(N/N=C/c1ccc(O)cc1)c1csc2c1CCCC2,"inconclusive: 11.6 µM [rising, partial curve]",–
Cn1c(O)c(N=NC(=O)CNC(=O)c2ccccc2)c2cc(Br)ccc21,–,inconclusive: -31.5%
COc1ccc(-c2nc3ccc([N+](=O)[O-])cc3[nH]2)cc1,"inconclusive: 29.1 µM [cytotoxic, single point]",–
N#Cc1cccc(C(c2nnnn2CCc2ccccc2)N2CCN(C3CCCCC3)CC2)c1 (stereo not drawn),"inconclusive: 8.2 µM [cytotoxic, partial curve]",–
Cc1cc(C)n2nc(-c3sccc3-n3cccc3)cc2n1,"inconclusive: 20.6 µM [cytotoxic, single point]",–
CC(C)Oc1ccc(C(CCNCc2ccc(O)cc2)c2ccccc2)cc1 (stereo not drawn),active: 18.4 µM,–
Cc1cnc(C(=O)OCc2ccc(C#N)cc2)cn1,inactive,–
CCCN(CC(=O)Nc1ccccc1C)C(=O)c1ccc2c(c1)OCO2,"inconclusive: 14.6 µM [cytotoxic, partial curve]",–
Cc1cc(C)c(NC(=O)CNC(=O)c2ccc(-n3cncn3)c([N+](=O)[O-])c2)c(C)c1,inactive,–
Cc1cc(C)cc(Cn2ncc(Cl)c(Cl)c2=O)c1,active: 23.1 µM,–
C/C(Nc1ccc(Cl)cc1)=C(/C#N)C(N)=O,"inconclusive: 29.1 µM [cytotoxic, single point]",–
CN1C[C@@H]2[C@@H]3C(=O)N(Cc4ccccc4)C(=O)[C@@H]3[C@](C)(C1=O)N2C(=O)c1ccc(Br)cc1,"inconclusive: 0.0073 µM [rising, full curve]",–
CS(=O)(=O)N1CCN(C(=O)C2c3ccccc3Oc3ccccc32)CC1,"inconclusive: 3.26 µM [cytotoxic, full curve, poor fit]",–
C(=N\N1CCN(C2c3ccccc3-c3ccccc32)CC1)/c1cccnc1,"inconclusive: 20.6 µM [cytotoxic, single point]",–
COc1ccc(-c2cc(-c3ccccc3O)[nH]n2)cc1OC,inactive,–
CCCC(=O)NC(NC(=S)Nc1ccc(N=Nc2ccccc2)cc1)C(Cl)(Cl)Cl (stereo not drawn),active: 18.4 µM,–
O=C(N/N=C\c1ccc([N+](=O)[O-])o1)c1cncc(Br)c1,"inconclusive: 9.2 µM [cytotoxic, partial curve, poor fit]",–
Cc1ccccc1-n1c(=O)c(C#N)cc2c(=O)n3ccccc3nc21,inactive,–
CCCN(CC(=O)Nc1ccccc1C)C(=O)c1ccc2c(c1)S(=O)(=O)N=C1CCCCCN12,–,inconclusive: 38.9%
COC(=O)c1c(NC(=O)CCc2ccc(C)o2)sc(C)c1C,"inconclusive: 23.1 µM [cytotoxic, partial curve, poor fit]",–
COc1cccc(C2=CC(=O)CC(C)(C)C2)n1,"inconclusive: 20.6 µM [rising, single point]",–
COc1ccc(-c2cn[nH]c2-c2ccc(OCc3ccc([N+](=O)[O-])cc3)cc2O)cc1,active: 3.66 µM,–

Compound,Potency,"activity change, negative = cytotoxicity"
Nc1nc(CCl)nc(Nc2ccccc2)n1,"inconclusive: 32.6 µM [cytotoxic, single point]",–
COc1ccc(CNC(=O)CN(C(=O)c2csnn2)c2cccc3c2CCCC3)cc1,"inconclusive: 6.51 µM [cytotoxic, partial curve, poor fit]",–
Cc1cc(C)nc(-n2ncc3c2CCCC3=O)n1,"inconclusive: 23.1 µM [rising, single point]",–
CCc1ccccc1NC(=O)CN(C)Cc1nc(N)nc(Nc2ccccc2C)n1,active: 3.26 µM,–
O=C1c2ccccc2C(c2nnnn2-c2ccc3c(c2)OCCO3)N1Cc1ccccc1 (stereo not drawn),"inconclusive: 11.6 µM [cytotoxic, partial curve]",–
CCC(Sc1nc2cc(OC)c(OC)cc2c(=O)n1CCc1ccc(S(N)(=O)=O)cc1)C(=O)NCCOC (stereo not drawn),inactive,–
CCOC(=O)N1CCC(NC(=O)c2cccn3c(=O)c4cc(Br)ccc4nc23)CC1,"inconclusive: 1.16 µM [cytotoxic, full curve]",–
C=CCN(C(=O)C1CC(=O)N(C2CCCC2)C1)c1nc(-c2ccc(S(C)(=O)=O)cc2)cs1 (stereo not drawn),active: 2.91 µM,–
O=C(C(=Cc1ccc(O)cc1)c1ccccc1)c1ccccc1,"inconclusive: 37.2 µM [cytotoxic, single point]",–
CCOC(=O)C1CCCN(C(=O)c2sc3nc(-c4ccc(F)cc4)cn3c2C)C1 (stereo not drawn),"inconclusive: 16.4 µM [cytotoxic, partial curve, poor fit]",–
C=CCN=C1N[C@@H](c2ccccc2)C(C(=O)OC)=C(C)N1CCOC,inactive,–
O=C(COC(=O)c1ccc([N+](=O)[O-])o1)NCc1ccc2c(c1)OCO2,"inconclusive: 29.1 µM [rising, single point]",–
Cc1ccccc1Nc1sc(C(=O)c2ccc(F)cc2)c(N)c1C(=O)NCCc1ccccc1,"inconclusive: 29.1 µM [rising, single point]",–
O=C(NC(c1ccc(F)cc1)c1ccc2ccccc2n1)C1CCN(Cc2cccc(C(F)(F)F)c2)CC1 (stereo not drawn),"inconclusive: 20.6 µM [cytotoxic, single point]",–
c1ccc(C2=Nn3c(nnc3-c3n[nH]c4c3CCC4)SC2)cc1,"inconclusive: 23.1 µM [cytotoxic, partial curve]",–
COc1ccc(C=C2CCC3C(CCCC34OCCO4)C2=O)cc1 (stereo not drawn),inactive,–
COC(=O)c1nn(-c2ccc(Oc3ccccc3)cc2)c(=O)cc1O,"inconclusive: 9.2 µM [rising, partial curve, poor fit]",–
CC1CCc2sc(C(=O)OCC(=O)NCc3ccc(F)cc3)cc2C1 (stereo not drawn),"inconclusive: 25.9 µM [cytotoxic, single point]",–
Cn1c(=O)c2c(nc(N/N=C3\CCCc4ccccc43)n2Cc2ccc(F)cc2)n(C)c1=O,inactive,–
CCOC(=O)N1CCN(C(=O)/C=C/c2c(C)nn(-c3ccc(F)cc3)c2Cl)CC1,"inconclusive: 29.1 µM [cytotoxic, single point]",–
CCC(=O)Nc1cc2c(cc1Cl)-c1ccccc1C2,inactive,–
CCSc1ccccc1C(=O)Nc1cc(OC)c(OC)c(OC)c1,"inconclusive: 16.4 µM [cytotoxic, single point]",–
